From the supplement of paper PMC5949888
Most values lie at the floor of the assay. Slopes are relative: functional sequences can read slightly below zero.

system: Saccharomyces cerevisiae PS128 hsf1 delta, HSF1(1-493) fusion; test: growth estimate (transactivation domain function in HSF1 fusion, heat-shock survival) (a.u. (slope of normalised read count over time)); higher = stronger growth at 37°C, i.e. more transactivation activity; conditions: library: random library

| Substance | growth estimate |
| --- | --- |
| GIGYAAWPLYTVTGLAFRKL | < -0.25 |
| FPNQPP | < -0.25 |
| HQAGASGNTAQCGARLTDAG | < -0.25 |
| DTTGEPVSSRRTFWWGRGRP | < -0.25 |
| NLRQFLCEPTCGIVHERSVS | < -0.25 |
| RGIMGFKVGGMQAYGITFGS | < -0.25 |
| YHRFGKCTLGPSA | < -0.25 |
| GSRGCPY | -0.236 |
| HGVRLPINLRGHTCPARPQE | < -0.25 |
| RCYAQCCTVPGLKRYCGWPF | < -0.25 |
| TRGVVQGSIECPGALRPLRI | < -0.25 |
| GVSDAGSLIDTCKGRFTAKS | < -0.25 |
| RTGGCWCRRSRLAGRAVDAV | < -0.25 |
| SVTMGCHFKVTLWY | < -0.25 |
| HSSTCLT | < -0.25 |
| GLVMICACSTHACAIIINSA | < -0.25 |
| EQAGWCNRTNLRSPG | < -0.25 |
| TGNLSAWNHPRGEQHGT | < -0.25 |
| PDSLNLFDFSRPWTALSPWW | < -0.25 |
| VSPDANCDFRACF | < -0.25 |
| GVVAF | < -0.25 |
| KSEEDRHGKEAMSLGSTLCG | < -0.25 |
| KKPTPPRGGHVI | < -0.25 |

Not a retest: entries from further up.

| Substance | growth estimate |
| --- | --- |
| SVTMGCHFKVTLWY | < -0.25 |
| HSSTCLT | < -0.25 |
| GLVMICACSTHACAIIINSA | < -0.25 |
| EQAGWCNRTNLRSPG | < -0.25 |
| TGNLSAWNHPRGEQHGT | < -0.25 |

Additional results.

| Substance | growth estimate |
| --- | --- |
| SATQSGPRVGRLPWMTRPSN | < -0.25 |
| RSYTIDRFGSHL | < -0.25 |
| RRTREPLNDLMVQLR | < -0.25 |
| LCSIKRSIIRLKGRD | < -0.25 |
| RCS | < -0.253 |
| SAFRPRFDRPCPRGGP | < -0.25 |
| FLF | < -0.25 |
| DGALFCLSMNCSDRTRLCCV | < -0.25 |
| CLHLTIGASLHPKLSREDRS | < -0.25 |
| ARN | < -0.25 |
| SQWKVI | < -0.25 |
| GILLPGLQRSVWVLPVEETR | < -0.25 |
| PKRTPISNKSMVR | < -0.25 |
| VMG | < -0.25 |
| IFTAVGVSI | < -0.25 |
| SDGQPAA | < -0.25 |
| PWMALGVRAQEWSIFRDYQM | < -0.25 |
| VDITNFEGCVMGVTSLFESR | < -0.25 |
| QNGTG | < -0.25 |
| CKLSFNQNGFMGRSSSMYWQ | < -0.25 |
| IFTGMRRTS | < -0.25 |
| VLHRRIERSRYAL | < -0.25 |
| SHNQSACGAGRLG | < -0.25 |

| Substance | growth estimate |
| --- | --- |
| RRVR | < -0.25 |
| FQLPGAM | < -0.25 |
| WKVLPVRSPVSASFWHGWRL | < -0.25 |
| AARR | < -0.25 |
| RVSCFAEDELVEEPMHPATC | < -0.25 |
| QVHCM | < -0.25 |
| EVRCRCAKFPGVDRVSEYSG | < -0.25 |
| LGTNCVS | -0.245 |
| INLAYGELEAQFR | < -0.25 |
| EKGHGNVQDGARGGAYGQWR | < -0.25 |
| HSAARNQTACFWLRGWIHPA | < -0.25 |
| DPYADYG | < -0.25 |
| LHRNHGNPPAERGLLVSLFT | < -0.25 |
| WETSIS | < -0.25 |
| EEIGSEFRTFGQWLLISQQI | < -0.25 |
| VYFIVDWLS | < -0.25 |
| ALIECAGYSTS | < -0.25 |
| TNCALRSVIALYNRRLPHIV | < -0.25 |
| VSQGLNQ | < -0.25 |
| SGNGVLFAVFLSL | < -0.25 |
| GMC | < -0.25 |
| NCSILM | < -0.25 |
| SSVVLGDGLFIGDT | < -0.25 |

Retrieved one by one from above:

| Substance | growth estimate |
| --- | --- |
| INLAYGELEAQFR | < -0.25 |
| FQLPGAM | < -0.25 |
| EVRCRCAKFPGVDRVSEYSG | < -0.25 |

Following part:

| Substance | growth estimate |
| --- | --- |
| IKITGGYGLIDPCVGRYCFS | < -0.25 |
| QPKR | < -0.25 |
| DTSLSQIYSAGRD | < -0.25 |
| RARVDEN | < -0.25 |
| NMA | < -0.25 |
| RQIVH | < -0.25 |
| LSHHGLLPTVAGLPSLIGLT | < -0.25 |
| FHQGLRKCSLMGKRWECGRA | < -0.25 |
| LPRTSEFCCNPN | < -0.25 |
| RLSRQGFARVSPYGVAVPVV | < -0.25 |
| DGNDD | < -0.25 |
| RLDVVARAWPPLRQ | < -0.25 |
| DSRGAPHGGSLITPFGLGVE | -0.245 |
| QEDTLDFIPVPGLTKGGRAS | < -0.25 |
| GHYSRAYPGSRTPGIYYYIQ | < -0.25 |
| LGPGLNWED | < -0.25 |
| LPLCVSALRHK | < -0.25 |
| EITGS | < -0.25 |
| TRGLVKFLAGER | < -0.25 |
| LQRQEGSSRVDIA | < -0.253 |
| FILIVWLSKNADENRVMCQH | -0.181 |
| SGHSFGKKTSLNSSWHPG | < -0.25 |
| ALFCTGTSRSLAGT | < -0.25 |

| Substance | growth estimate |
| --- | --- |
| QGIGLEGRMRT | < -0.25 |
| GRTEWRTAPVSLTERSGTQI | < -0.25 |
| LVLGRSLVDL | < -0.25 |
| LKPNRSSPGQMPFYI | < -0.25 |
| KRASEV | < -0.25 |
| CRLWSIRLLAFGKRQARVIR | < -0.25 |
| DPTHGARLVSVYVPHVDEVS | < -0.25 |
| TGARTQLKGLKQLFPFPVTP | -0.239 |
| VIRGENLLRLLIRNSPTKHD | < -0.25 |
| TVGEAWI | < -0.25 |
| AGSGMSRLPNKVGIIERGIR | < -0.25 |
| VRPYSV | < -0.25 |
| CSLRPKCPVMTRRTIYGSSS | < -0.25 |
| LGRLQPTFED | < -0.25 |
| SESSRI | < -0.25 |
| MASTTRQKQSGRARSSIQSF | < -0.25 |
| VGCVAQVAGGMQRAIYHSLQ | < -0.25 |
| PPLGYTASETGCTYGMTLVL | < -0.25 |
| HQPTVKLASFQQWCGNLSIA | < -0.25 |
| HGPQAFPVPCCLDQTTGCAG | < -0.25 |
| DRGEDGRVVRSTVLARSRGA | < -0.25 |
| VLLKKYGPVVCGIESPSAAF | < -0.25 |
| ALWAAKPLFHAHIPS | < -0.25 |

| Substance | growth estimate |
| --- | --- |
| LLKRKRKITPGIL | < -0.25 |
| QNPGGRVDAAAGRNAMCLSK | < -0.25 |
| RREIGNTVYGEIGWTDSNVT | < -0.25 |
| HVAALRGFMRHSERIFWLAV | < -0.25 |
| YLYLI | < -0.25 |
| SRGVQATR | < -0.25 |
| GSRGDHQHCTLNGRLFNLCI | < -0.25 |
| SPLHASTG | < -0.25 |
| VQETTCVCGRLEHI | < -0.25 |
| DRKIAGSPLTRTCKAGYV | < -0.25 |
| SSEPRLGSTNRCDSSDRIPA | < -0.25 |
| YGDSERVDVVVEI | < -0.25 |
| VLKRVEGTRTLIHRNALGSW | < -0.25 |
| RKGSVSL | < -0.25 |
| RQMR | < -0.25 |
| GRYVWLLGEANQYRVQTGAT | < -0.25 |
| LKLISIFVI | < -0.25 |
| RSSEWLSEL | < -0.25 |
| FDYAHSR | < -0.25 |
| GEQALLHNQQHEIRLCVYFA | < -0.25 |
| SVGYQA | < -0.25 |
| ILERSRSVFKKVQG | < -0.25 |
| ILDRVLRNINGRSWSVSTGL | < -0.25 |

| Substance | growth estimate |
| --- | --- |
| YADSRHTDPNLALVR | -0.169 |
| TPL | < -0.25 |
| LDPHHTLYHCYLDQHGSREH | < -0.25 |
| YRTEDLGQQLIGFGRMWHWE | < -0.25 |
| WLSFNAVSLKSLEYPTGHKS | < -0.25 |
| LALLPEAPVYVGMVGVEVNS | < -0.25 |
| VIGVVRGGIMKGKRTLGGPC | < -0.25 |
| NRSS | < -0.25 |
| DMTSDPTALPTT | < -0.25 |
| GYRLRPR | < -0.25 |
| GLRLNRWIDLTGFRWQSESQ | < -0.25 |
| KVRGKARFLKAENVTNGEVR | < -0.25 |
| KVIPPQTLQDPGEMGTHERT | < -0.25 |
| SASRILLHGATGRQEDTTLR | < -0.25 |
| TGGHHKRLQHGAVCPVGVID | < -0.25 |
| EGVETHQPGPITDVVLFRVR | < -0.25 |
| CADCQHTDTSVLETAEKEPP | < -0.25 |
| VGSGNSGSGEGQDAEGRAVS | < -0.25 |
| RGLCKAVVKAASI | < -0.25 |
| VELVEVSLIAYGGAMAHESR | < -0.25 |
| VLRGGRELAHWPSGSGGASV | < -0.25 |
